We go through 1 substance from article PMC12533850.

Protein sequences, listed by entry. Tags and fused reporters are not part of them.
UniProt P52294: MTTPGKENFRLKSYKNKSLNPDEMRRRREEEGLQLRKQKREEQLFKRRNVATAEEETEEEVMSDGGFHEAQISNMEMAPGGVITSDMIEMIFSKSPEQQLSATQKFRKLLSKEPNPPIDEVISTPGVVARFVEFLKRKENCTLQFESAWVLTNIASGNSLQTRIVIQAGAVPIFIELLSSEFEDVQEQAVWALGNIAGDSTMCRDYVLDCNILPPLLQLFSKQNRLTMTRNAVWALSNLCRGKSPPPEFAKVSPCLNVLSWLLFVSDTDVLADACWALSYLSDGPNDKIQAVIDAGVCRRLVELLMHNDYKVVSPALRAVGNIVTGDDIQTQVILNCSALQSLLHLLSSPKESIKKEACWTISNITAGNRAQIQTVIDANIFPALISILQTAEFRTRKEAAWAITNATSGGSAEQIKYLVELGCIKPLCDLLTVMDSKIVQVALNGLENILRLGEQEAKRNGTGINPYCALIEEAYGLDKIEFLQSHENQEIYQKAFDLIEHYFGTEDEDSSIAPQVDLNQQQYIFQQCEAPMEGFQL
UniProt P03146: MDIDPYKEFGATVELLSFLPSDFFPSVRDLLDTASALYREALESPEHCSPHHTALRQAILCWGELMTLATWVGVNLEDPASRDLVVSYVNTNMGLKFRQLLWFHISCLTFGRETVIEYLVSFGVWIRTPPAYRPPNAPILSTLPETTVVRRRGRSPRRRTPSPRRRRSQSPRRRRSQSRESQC

No constants are given. Whether binding was seen depends on the method and setting. Binding seen in cells or lysates may run through a third protein. Some entries that bind do so weakly or less than the wild type.

The assay deals with N-terminally FLAG-tagged karyopherin α1 (UniProt P52294). Nature of the assay: co-IP; HepAD38 induced (tet-) for 6 days, then co-transfected with FLAG-Kα1 and control vector or C1QBP for 2 more days; anti-FLAG precipitation, Western blot for HBc.

In the case of “HBV core protein (HBc) made in HepAD38 cells (from UniProt P03146 1-183)”, the binding entry was “binds”.
